Experimental data: publication PMC3694053

Amino acid sequences for entries named in this document (tags omitted).
UniProt P98175: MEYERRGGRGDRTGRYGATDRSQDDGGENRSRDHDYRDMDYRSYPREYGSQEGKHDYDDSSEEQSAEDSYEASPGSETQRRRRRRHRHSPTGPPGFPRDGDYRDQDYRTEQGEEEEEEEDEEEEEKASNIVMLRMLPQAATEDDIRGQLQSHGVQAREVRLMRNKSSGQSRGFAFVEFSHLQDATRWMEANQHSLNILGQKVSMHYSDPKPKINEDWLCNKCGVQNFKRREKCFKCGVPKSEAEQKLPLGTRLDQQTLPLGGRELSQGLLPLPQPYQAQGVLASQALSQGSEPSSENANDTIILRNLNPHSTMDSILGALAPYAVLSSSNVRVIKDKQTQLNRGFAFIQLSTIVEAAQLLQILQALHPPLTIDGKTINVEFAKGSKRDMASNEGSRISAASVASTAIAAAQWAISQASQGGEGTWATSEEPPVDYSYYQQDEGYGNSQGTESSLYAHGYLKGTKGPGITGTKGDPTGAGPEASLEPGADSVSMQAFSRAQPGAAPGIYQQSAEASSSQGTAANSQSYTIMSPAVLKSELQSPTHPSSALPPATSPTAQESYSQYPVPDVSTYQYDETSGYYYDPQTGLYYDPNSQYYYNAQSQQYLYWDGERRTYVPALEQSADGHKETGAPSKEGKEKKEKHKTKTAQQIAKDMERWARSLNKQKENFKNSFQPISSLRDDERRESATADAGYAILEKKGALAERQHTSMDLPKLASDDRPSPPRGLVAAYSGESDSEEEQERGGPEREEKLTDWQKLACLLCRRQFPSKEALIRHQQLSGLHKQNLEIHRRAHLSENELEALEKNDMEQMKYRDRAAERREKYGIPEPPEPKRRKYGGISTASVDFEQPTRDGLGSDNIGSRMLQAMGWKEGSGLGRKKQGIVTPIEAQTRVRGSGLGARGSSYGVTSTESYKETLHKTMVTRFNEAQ
UniProt O14744: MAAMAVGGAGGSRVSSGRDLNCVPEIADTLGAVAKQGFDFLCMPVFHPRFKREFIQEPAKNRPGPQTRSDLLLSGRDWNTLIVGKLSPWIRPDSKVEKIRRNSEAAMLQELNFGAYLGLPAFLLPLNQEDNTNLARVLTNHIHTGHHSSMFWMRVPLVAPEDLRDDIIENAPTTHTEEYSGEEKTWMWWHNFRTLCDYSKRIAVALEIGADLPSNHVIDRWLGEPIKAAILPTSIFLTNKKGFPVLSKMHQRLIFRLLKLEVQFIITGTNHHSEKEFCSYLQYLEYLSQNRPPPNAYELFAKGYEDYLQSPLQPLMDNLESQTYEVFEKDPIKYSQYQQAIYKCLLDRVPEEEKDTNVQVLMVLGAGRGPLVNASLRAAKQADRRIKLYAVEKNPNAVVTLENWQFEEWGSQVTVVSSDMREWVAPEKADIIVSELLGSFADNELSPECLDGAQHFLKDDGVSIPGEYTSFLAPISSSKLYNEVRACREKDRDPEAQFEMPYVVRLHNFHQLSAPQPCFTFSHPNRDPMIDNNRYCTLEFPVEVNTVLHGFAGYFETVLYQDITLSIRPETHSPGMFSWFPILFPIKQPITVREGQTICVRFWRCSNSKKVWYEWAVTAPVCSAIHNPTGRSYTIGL
UniProt Q13485: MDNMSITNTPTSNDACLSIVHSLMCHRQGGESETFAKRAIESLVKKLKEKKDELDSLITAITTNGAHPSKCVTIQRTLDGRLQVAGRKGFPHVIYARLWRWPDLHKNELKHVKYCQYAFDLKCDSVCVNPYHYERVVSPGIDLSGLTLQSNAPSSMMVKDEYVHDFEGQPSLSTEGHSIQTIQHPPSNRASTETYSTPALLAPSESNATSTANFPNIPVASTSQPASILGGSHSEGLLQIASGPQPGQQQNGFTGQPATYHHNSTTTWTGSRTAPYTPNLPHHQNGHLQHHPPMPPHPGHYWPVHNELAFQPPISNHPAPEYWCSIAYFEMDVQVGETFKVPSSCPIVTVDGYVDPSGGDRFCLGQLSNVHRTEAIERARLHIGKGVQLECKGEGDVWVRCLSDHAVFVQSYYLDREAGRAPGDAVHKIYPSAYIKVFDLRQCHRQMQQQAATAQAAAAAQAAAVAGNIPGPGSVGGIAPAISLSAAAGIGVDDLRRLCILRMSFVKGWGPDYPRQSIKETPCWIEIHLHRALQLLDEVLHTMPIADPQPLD
UniProt Q15208: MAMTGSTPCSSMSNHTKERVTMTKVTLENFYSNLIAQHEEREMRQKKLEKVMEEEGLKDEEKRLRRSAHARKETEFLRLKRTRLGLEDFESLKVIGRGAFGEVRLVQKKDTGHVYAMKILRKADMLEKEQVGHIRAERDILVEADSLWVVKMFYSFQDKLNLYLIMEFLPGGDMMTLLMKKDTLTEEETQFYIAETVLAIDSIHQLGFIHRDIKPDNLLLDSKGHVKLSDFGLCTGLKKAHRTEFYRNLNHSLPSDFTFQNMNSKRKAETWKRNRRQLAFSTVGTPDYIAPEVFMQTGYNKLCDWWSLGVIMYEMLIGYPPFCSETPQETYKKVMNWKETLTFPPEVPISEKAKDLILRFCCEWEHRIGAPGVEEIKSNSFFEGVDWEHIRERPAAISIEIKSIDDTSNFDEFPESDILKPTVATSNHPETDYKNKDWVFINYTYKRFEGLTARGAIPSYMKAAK

T1: FLAG, HA-SnoN (UniProt P12757)
T1 sequence: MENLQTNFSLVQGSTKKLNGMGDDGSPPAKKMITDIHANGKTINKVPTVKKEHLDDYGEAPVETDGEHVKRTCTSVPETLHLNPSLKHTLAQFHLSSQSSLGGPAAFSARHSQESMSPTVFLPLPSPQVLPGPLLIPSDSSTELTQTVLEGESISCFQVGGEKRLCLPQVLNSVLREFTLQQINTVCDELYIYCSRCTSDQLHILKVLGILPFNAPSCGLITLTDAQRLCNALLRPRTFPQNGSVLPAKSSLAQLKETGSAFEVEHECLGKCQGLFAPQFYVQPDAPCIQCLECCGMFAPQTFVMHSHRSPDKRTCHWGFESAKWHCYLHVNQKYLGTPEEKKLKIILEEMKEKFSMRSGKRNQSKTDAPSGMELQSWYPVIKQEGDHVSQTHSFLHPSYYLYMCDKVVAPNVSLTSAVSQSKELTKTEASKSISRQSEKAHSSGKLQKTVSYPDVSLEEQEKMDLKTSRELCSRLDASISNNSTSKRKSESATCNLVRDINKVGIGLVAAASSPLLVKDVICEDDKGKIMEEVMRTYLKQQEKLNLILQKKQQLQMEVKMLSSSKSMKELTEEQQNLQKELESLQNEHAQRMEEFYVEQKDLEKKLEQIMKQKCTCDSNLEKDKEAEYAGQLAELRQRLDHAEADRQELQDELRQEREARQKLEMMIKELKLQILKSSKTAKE


biological target: T1, FLAG, HA-SnoN; assay: affinity purification with mass spectrometry; tandem affinity purification from lysates of HaCaT cells stably expressing FLAG, HA-SnoN or control vector: anti-FLAG M2 gel, elution with TEV enzyme, anti-HA matrix, SDS-PAGE, LC-MS/MS of gel slices; TNE-based buffer with 0.5% Triton X-100

binding | Molecule
binds | Ski (protein, UniProt P12755 1-728) MEAAAGGRGCFQPHPGLQKTLEQFHLSSMSSLGGPAAFSARWAQEAYKKESAKEAGAAAVPAPVPAATEPPPVLHLPAIQPPPPVLPGPFFMPSDRSTERCETVLEGETISCFVVGGEKRLCLPQILNSVLRDFSLQQINAVCDELHIYCSRCTADQLEILKVMGILPFSAPSCGLITKTDAERLCNALLYGGAYPPPCKKELAASLALGLELSERSVRVYHECFGKCKGLLVPELYSSPSAACIQCLDCRLMYPPHKFVVHSHKALENRTCHWGFDSANWRAYILLSQDYTGKEEQARLGRCLDDVKEKFDYGNKYKRRVPRVSSEPPASIRPKTDDTSSQSPAPSEKDKPSSWLRTLAGSSNKSLGCVHPRQRLSAFRPWSPAVSASEKELSPHLPALIRDSFYSYKSFETAVAPNVALAPPAQQKVVSSPPCAAAVSRAPEPLATCTQPRKRKLTVDTPGAPETLAPVAAPEEDKDSEAEVEVESREEFTSSLSSLSSPSFTSSSSAKDLGSPGARALPSAVPDAAAPADAPSGLEAELEHLRQALEGGLDTKEAKEKFLHEVVKMRVKQEEKLSAALQAKRSLHQELEFLRVAKKEKLREATEAKRNLRKEIERLRAENEKKMKEANESRLRLKRELEQARQARVCDKGCEAGRLRAKYSAQIEDLQVKLQHAEADREQLRADLLREREAREHLEKVVKELQEQLWPRARPEAAGSEGAAELEP

biological target: T1, FLAG, HA-SnoN; assay: as above; remark: another data set of the same source

binding | Molecule
binds | RBM10 (from UniProt P98175 1-930)
binds | Skb1Hs/PRMT5 (from UniProt O14744 1-637)
binds | Smad4 (from UniProt Q13485 1-552)
binds | endogenous NDR1 (nuclear Dbf2-related 1) (from UniProt Q15208 1-465)
binds | α-tubulin (human (endogenous in HaCaT))

No constants are given. Whether binding was seen depends on the method and setting. In cells and extracts the contact can be indirect. A yes stands for co-enrichment or nearness to the bait. Other partners may have been found. Where a sequence is shown, tags or fusion partners need not be part of it.
